Among all 31,000 sequences or so, about 1,400 (4.5%) were called active.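 The calls were made as follows: active = median seed-adjusted z-score above 1 or below -1; inactive = the rest.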 The list shows a part of the results.

The nature of the assay: Novel Modifiers of Survival Motor Neuron (SMN) Protein: Gene Identification via Genome-wide siRNA Screen.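 Also: luminescence tracks full-length SMN protein made from the SMN2 reporter.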 Conditions: HEK293T SMN2-luciferase reporter, siRNA knockdown, 72 h; actives lie on both sides. The procedure, abridged:
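Each of three siRNAs per gene is reverse-transfected (1 pmol) into reporter HEK293T cells whose luciferase output tracks SMN protein level. After 72 h culture, ONE-Glo luminescence is control-normalized, log10-transformed and MAD-standardized; Common Seed Analysis deprioritizes seed-driven hits.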
CUGCAUACAUCACAAAGAATT against SENP8: the median seed-adjusted z-score is inactive: 0. Take GGCUUAUCUUGACCACAAUTT against TLR10: the median seed-adjusted z-score is inactive: -0.363. In the case of ACAACGUGGUGUAUAAGCATT against GDF5, the median seed-adjusted z-score is inactive: -0.0507.

Consider UGGUGUCAGUGGAUCGCUATT against GPR101, for which the median seed-adjusted z-score was inactive: -0.265. Consider CAUCCACUCUGGAACCGCUTT against ELA3A, for which the median seed-adjusted z-score was inactive: -0.0465. Consider CAAGGGUUUUCUUACAAUATT against GNA13, for which the median seed-adjusted z-score is inactive: 0. Consider CGCUGAUGCUGGUCUUCAUTT against MC2R, for which the median seed-adjusted z-score is inactive: 0.

As for AGUCCAGCCUUAUCAAUCATT against ZNF773, the median seed-adjusted z-score was inactive: 0.345.

Take GGAACAGAGAAGCAUCUAATT against DDX3Y: the median seed-adjusted z-score is inactive: -0.149. For CGGAUUUGUUGCUAAAUGATT against PCDHB8, the median seed-adjusted z-score is active: 1.15.

On to CGCCUUAUACUUUACCAAATT against MGC16703, for which the median seed-adjusted z-score was inactive: 0.55.

As for CCAAGUCGAUGGAACAGUUTT against RASAL1, the median seed-adjusted z-score was inactive: -0.089. As for CAAGUUAUCCUGACCCUAUTT against TNFSF10, the median seed-adjusted z-score was inactive: 0. CGGCAGCUGAGAUUCGAAATT against CASP14: the median seed-adjusted z-score is inactive: 0.702.

Regarding CACUUAACUUUGUUGCGAATT against RNASEN, the median seed-adjusted z-score was inactive: 0.524. To CGAUAAAGACGGAUUCUAATT against MATK belongs inactive: -0.754; to GCUGGGCCUUCAUCAAGUATT against GPR108, inactive: 0.369; to GAAGGAUAUCAAAUCAAUUTT against TCF4, inactive: 0.107. To CGCUGGUCUUUUGACGGCATT against RAB40B belongs inactive: -0.31. For the sequence AGGUUUUCAUAGACAAGCATT against CUGBP1, the median seed-adjusted z-score is inactive: 0.086. On to CCCUGAUCCUAUAGCUAUUTT against ART4, for which the median seed-adjusted z-score is inactive: -0.0808. For GACAGAUUUUAUACGUUUATT against MTF2 the value was inactive: 0; for CGAGCAAGGUUAUGAACCATT against AFM, inactive: 0. For CCCAAGGAGUUAAUCCUAATT against C1D the value was inactive: 0.021; for GGACGACAAAAGAGUUGUATT against RAB10, inactive: -0.319. As to CUACAGAAAUACUAGAGGATT against TRIM74, the median seed-adjusted z-score is inactive: 0.0932. In the case of ACGUGAUCGCGUCAGGACATT against ARL8A, the median seed-adjusted z-score is inactive: -0.0844. As for GGACAUCUCUUAGCCCAUATT against NFATC3, the median seed-adjusted z-score is inactive: -0.517.

Take CCCUAGCACCCAUUACUUUTT against ETFA: the median seed-adjusted z-score was inactive: -0.0619. For the sequence GCACUAAAGCAAUCUUCAATT against CYP26A1, the median seed-adjusted z-score was inactive: 0.0569.

Regarding AGUCCUCUAUCAACCUCUUTT against RXFP3, the median seed-adjusted z-score was inactive: -0.0651. With GGAGUGAUAUCUUCCACUATT against SLC25A14, the median seed-adjusted z-score is inactive: 0.281. To GCCCGAAUGUUCGCUGAAATT against RAB25 belongs inactive: -0.04; to CCUGAUUUCCAUUCAGAAATT against ETV4, inactive: -0.186; to CAACCUAUACUAACCUGAATT against TUBA1A, inactive: 0.284. On to CGACGGUUCUUCAUCCUUUTT against MPRIP, for which the median seed-adjusted z-score is inactive: 0.238. With CGUUCUCAGAGCUACCCUUTT against NRIP2, the median seed-adjusted z-score was inactive: 0.415. GGACCCUAAUCAAACGAAUTT against PDE8A: the median seed-adjusted z-score is inactive: 0.302.

With CCAAUGAGGUAAAAACGGATT against MLL3, the median seed-adjusted z-score is inactive: -0.248. As to AGCAGGAGUUUGACAAGAATT against GPKOW, the median seed-adjusted z-score is inactive: -0.239. As to ACAAAUCUCGCUGACCAUATT against MEIS2, the median seed-adjusted z-score was inactive: 0.475. Take GGAUGUCCACCACAGUAAATT against KL: the median seed-adjusted z-score is inactive: -0.267. With GCAAGUACCCAGUACGAGATT against NFASC, the median seed-adjusted z-score is inactive: 0.594. UGAGGAGUUUUACCAGAAATT against HS1BP3: the median seed-adjusted z-score was inactive: 0.418. As for GCUUGUAGGUGAUACACCUTT against ROCK1, the median seed-adjusted z-score is inactive: -0.306. Consider CAGUGAACCACAAACAGUUTT against SCN2B, for which the median seed-adjusted z-score is inactive: -0.65. For AGGCAUCUGUACUUAAGAATT against ZFP57 the value was inactive: -0.267. As for AGACUUUCCAGCAUCCAUATT against KREMEN1, the median seed-adjusted z-score is inactive: 0. For CCAGUAAUAUAGUAGUAAATT against MAPK8 the value was inactive: 0.316; for CGUGUUUGCUAUGAUUAAATT against GP5, inactive: -0.286. To ACAAUCAACUAAGCCCUUUTT against MS4A7 belongs inactive: 0.0794; to CCAACUUAACCAACAUAGATT against SENP5, inactive: 0.215. For UCUUCUACCUCAACAUGUATT against GPR17 the value was inactive: -0.309.

As for GAUUGAAACUGACAAGACATT against DLST, the median seed-adjusted z-score is active: 1.16.

In the case of CAAUAGCUGAAAUAAUAGATT against KPNA3, the median seed-adjusted z-score was inactive: 0.383. Turning to GAACUCUACGGGAAUUUCATT against CA11, the median seed-adjusted z-score was inactive: -0.0741. For CUGUCCUCUCUAAACAGUATT against MRGPRX4, the median seed-adjusted z-score is inactive: -0.113. On to GCAUCGCAGAAGUUGCUAATT against PAPSS1, for which the median seed-adjusted z-score was inactive: -0.648. On to ACAAGAGUAUGUUAUUUAATT against NDUFB1, for which the median seed-adjusted z-score is inactive: 0.

CUUUCUGAGUUAUCAUAUATT against NOX3: the median seed-adjusted z-score was inactive: 0.04.

For the sequence AGACAUUGUUGUUCUUGGUTT against PSMA7, the median seed-adjusted z-score is inactive: 0.0726. On to GGAAAAGAUUGAUGCGGUATT against MMP2, for which the median seed-adjusted z-score is inactive: 0.0467. On to UCUUCUACACCAAUAUCUATT against GPR4, for which the median seed-adjusted z-score was inactive: 0.563. For GGCGUAGGUCUGUUCGAUATT against UBR2, the median seed-adjusted z-score is inactive: 0.632.

As for AGAUGGAGUUGGUCCAGCATT against ADC, the median seed-adjusted z-score is inactive: -0.157. Consider CAAUAGCCACGUGAACCCUTT against COX6A2, for which the median seed-adjusted z-score was inactive: 0.714. For the sequence GUAGGGUCCCUUAUUGUUATT against PCDHB9, the median seed-adjusted z-score was inactive: 0.516. For GAACUGGACGGACAACUAUTT against OGFR the value was inactive: -0.565; for GAAAGAUGGUGUUGACUUUTT against ALDOB, active: -1.34.

The values above are taken from PubChem BioAssay AID1347426 (Functional Genomics Laboratory (NCATS/FGL), 2020).
